Data published in article PMC7244511, “Phosphoproteomics identifies dual-site phosphorylation in an extended basophilic motif regulating FILIP1-mediated degradation of filamin-C” (Communications Biology, 2020).

Amino acid sequences for entries named in this document (tags omitted). A change or cut given only in a name is not applied to a line headed by its entry.
UniProt Q14315: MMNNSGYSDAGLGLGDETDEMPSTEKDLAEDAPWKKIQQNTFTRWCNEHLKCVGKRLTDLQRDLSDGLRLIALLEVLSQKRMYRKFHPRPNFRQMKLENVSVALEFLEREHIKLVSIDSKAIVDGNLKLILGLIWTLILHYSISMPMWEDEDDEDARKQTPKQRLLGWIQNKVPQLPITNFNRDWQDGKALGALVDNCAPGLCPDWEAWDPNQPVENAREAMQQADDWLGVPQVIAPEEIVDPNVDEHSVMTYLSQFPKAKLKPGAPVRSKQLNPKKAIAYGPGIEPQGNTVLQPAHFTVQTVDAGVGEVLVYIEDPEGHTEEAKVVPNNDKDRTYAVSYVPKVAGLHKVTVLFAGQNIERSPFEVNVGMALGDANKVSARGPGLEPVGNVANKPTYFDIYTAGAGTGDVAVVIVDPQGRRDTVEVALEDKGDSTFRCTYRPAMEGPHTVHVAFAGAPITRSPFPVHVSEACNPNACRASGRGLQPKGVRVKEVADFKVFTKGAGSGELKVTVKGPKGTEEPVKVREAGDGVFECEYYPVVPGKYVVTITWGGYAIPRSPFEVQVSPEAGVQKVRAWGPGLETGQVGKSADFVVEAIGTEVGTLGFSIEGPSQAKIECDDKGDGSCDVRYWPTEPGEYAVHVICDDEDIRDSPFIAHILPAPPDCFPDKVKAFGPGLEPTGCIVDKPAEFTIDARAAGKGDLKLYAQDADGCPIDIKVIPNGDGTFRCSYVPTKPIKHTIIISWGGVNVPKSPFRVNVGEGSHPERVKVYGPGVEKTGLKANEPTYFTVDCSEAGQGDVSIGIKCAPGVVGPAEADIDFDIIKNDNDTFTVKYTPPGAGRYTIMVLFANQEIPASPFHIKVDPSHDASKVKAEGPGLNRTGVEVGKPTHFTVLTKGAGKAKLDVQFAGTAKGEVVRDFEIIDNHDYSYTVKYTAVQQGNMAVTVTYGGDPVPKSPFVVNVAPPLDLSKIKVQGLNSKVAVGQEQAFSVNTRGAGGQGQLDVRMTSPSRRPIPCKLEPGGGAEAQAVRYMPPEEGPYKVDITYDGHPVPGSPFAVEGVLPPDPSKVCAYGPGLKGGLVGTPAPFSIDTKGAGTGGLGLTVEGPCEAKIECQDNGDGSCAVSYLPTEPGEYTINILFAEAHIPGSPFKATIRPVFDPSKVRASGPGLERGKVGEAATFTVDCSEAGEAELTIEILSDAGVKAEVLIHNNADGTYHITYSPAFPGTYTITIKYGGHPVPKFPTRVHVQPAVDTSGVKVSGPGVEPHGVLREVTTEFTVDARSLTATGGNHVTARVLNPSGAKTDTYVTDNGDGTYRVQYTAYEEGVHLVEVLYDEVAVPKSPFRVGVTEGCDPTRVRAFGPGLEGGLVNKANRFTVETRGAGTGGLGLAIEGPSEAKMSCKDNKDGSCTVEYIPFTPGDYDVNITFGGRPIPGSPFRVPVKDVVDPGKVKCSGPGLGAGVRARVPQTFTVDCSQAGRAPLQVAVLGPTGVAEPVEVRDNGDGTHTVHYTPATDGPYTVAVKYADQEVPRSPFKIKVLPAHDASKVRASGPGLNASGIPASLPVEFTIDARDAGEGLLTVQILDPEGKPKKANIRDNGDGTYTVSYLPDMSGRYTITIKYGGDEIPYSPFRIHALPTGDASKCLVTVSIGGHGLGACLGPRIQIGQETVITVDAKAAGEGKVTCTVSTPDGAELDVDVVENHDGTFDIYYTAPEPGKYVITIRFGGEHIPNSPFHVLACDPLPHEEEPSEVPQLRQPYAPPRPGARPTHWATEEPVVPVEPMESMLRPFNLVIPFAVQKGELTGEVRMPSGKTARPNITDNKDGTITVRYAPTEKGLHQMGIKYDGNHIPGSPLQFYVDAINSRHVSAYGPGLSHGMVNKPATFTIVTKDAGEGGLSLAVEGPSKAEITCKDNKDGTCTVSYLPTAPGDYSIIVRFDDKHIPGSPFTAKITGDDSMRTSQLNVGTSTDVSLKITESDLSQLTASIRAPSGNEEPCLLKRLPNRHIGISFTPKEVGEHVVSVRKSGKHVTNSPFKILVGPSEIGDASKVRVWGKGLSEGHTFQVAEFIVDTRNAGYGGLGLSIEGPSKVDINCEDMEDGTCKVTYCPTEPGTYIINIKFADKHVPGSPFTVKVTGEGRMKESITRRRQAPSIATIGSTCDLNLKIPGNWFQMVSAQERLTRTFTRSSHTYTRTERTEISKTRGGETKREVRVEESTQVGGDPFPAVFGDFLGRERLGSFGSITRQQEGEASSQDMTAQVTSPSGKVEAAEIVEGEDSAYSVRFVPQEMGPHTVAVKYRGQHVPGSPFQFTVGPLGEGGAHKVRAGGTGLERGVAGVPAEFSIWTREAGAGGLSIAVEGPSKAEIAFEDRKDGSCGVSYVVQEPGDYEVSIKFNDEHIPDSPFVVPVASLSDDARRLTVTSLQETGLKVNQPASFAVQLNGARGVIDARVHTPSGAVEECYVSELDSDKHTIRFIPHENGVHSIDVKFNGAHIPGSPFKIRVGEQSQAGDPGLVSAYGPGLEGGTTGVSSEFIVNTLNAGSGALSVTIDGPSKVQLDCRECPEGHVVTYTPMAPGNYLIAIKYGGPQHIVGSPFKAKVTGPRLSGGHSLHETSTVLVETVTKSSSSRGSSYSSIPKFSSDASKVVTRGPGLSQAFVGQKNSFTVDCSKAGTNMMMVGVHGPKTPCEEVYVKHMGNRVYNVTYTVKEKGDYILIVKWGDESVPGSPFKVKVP
UniProt Q9JLV1: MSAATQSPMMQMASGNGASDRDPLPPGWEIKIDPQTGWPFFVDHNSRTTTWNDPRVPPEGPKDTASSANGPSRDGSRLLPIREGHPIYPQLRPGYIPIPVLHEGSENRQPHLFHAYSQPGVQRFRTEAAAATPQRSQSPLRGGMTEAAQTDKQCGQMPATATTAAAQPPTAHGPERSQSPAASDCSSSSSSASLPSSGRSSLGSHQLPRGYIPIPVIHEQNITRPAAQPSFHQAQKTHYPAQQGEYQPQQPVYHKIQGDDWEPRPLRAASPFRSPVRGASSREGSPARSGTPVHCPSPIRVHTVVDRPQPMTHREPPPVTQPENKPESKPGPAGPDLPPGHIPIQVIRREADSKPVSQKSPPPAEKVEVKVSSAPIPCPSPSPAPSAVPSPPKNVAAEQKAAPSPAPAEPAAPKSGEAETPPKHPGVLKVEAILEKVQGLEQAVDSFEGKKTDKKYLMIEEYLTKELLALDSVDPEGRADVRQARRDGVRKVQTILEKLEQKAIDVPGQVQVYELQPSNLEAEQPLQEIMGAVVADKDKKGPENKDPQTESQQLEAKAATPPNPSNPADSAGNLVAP

Molecular target: Myc-tagged FLNc d18–21 WT (expressed in C2 cells) (human) (UniProt Q14315)
Assay: co-IP; C2 cells transfected with Myc-FLNc d18–21 WT, AA or DD with or without HA-FILIP1, 6 h 10 µM MG-132 or DMSO; Myc-Dynabeads from modified RIPA lysate; immunoblot

Bcl-2-associated athanogene 3 (Bag3) (from UniProt Q9JLV1 1-577)
binding: binds

Results are given in words; binding and its absence hold for the method and conditions named. In cells and extracts the contact can be indirect. Binding calls can cover weak binding; strength is not graded here.
